Record: PubChem BioAssay AID1259298 (Sanger Institute, 2017)
The deposit covers 794 reagents; this is a part drawn at random. 20 of all reagents (2.5%) count as active. 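Calls rest only on the knock-down-alone score; drug synergy scores played no part in them.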 Not all columns of the deposit are shown. No sequences are given here. Not stated in the record: the amount of reagent, the time to read-out.

- Test: 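Kinases whose loss strengthens killing by BYL719, cetuximab or trametinib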 (primary screen)
- Cell system: HT55 human colorectal cancer cell line
- Knock-down reagent: siRNA pool against human genes
- Treatment: anchor drug BYL719 1 µM, cetuximab 5 µg/ml or trametinib 10 nM, or DMSO vehicle alone
- Read-out: 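Mean viability over replicates versus non-targeting pool, a robust z-score without drug, and per-drug synergy scores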
- Direction: robust z-score, knock-down alone: higher = more cells remaining; low means essential gene
- Hit rule: 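Essential when the robust z-score for knock-down alone with DMSO is below -3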
- Calls: active = essential (knock-down alone); inactive = no change alone

| target | robust z-score, knock-down alone | activity call |
| --- | --- | --- |
| TBX3 | 0.58 | inactive |
| BMPR1B | 0.2 | inactive |
| AK3 | 0.58 | inactive |
| NEK1 | -0.887 | inactive |
| PRKCQ | -0.589 | inactive |
| INSR | 0.58 | inactive |
| DYRK1B | 0.58 | inactive |
| KMT2B | 0.58 | inactive |
| PANK1 | 0.58 | inactive |
| PAK2 | 0.454 | inactive |
| PKLR | 0.138 | inactive |
| STK17B | 0.523 | inactive |
| PI4KB | 0.58 | inactive |
| TCF7L2 | 0.58 | inactive |
| POLR2B | -3.66 | active |
| CKM | 0.58 | inactive |
| DLG4 | 0.58 | inactive |
| MAPK7 | 0.58 | inactive |
| TWF2 | 0.58 | inactive |
| CSNK2B | 0.58 | inactive |
| SPEG | -0.268 | inactive |
| IKBKE | 0.193 | inactive |
| PRKAB2 | -1.47 | inactive |
| PIP5K1A | -0.501 | inactive |
| ADPGK | -0.423 | inactive |
| CDK4 | 0.58 | inactive |
| MUSK | -0.59 | inactive |
| CDK19 | -0.817 | inactive |
| NAGK | -1.36 | inactive |
| AMHR2 | -1.29 | inactive |
| CASP8 | 0.58 | inactive |
| UCKL1 | 0.224 | inactive |
| NME1 | 0.58 | inactive |
| SRPK3 | 0.58 | inactive |
| IRAK1 | -0.0498 | inactive |
| SCYL3 | 0.58 | inactive |
| SHPK | 0.58 | inactive |
| TAOK1 | -0.806 | inactive |
| TTBK2 | -0.21 | inactive |
| PRKAG2 | 0.58 | inactive |
| TTBK1 | -0.424 | inactive |
| NR4A2 | -1.51 | inactive |
| ULK4 | -1.36 | inactive |
| PANK3 | 0.58 | inactive |
| COASY | -3.41 | active |
| TCF12 | 0.58 | inactive |
| DDR1 | 0.58 | inactive |
| IRAK3 | -2.45 | inactive |
| PKN2 | 0.224 | inactive |
| PBK | 0.58 | inactive |
| POMK | 0.58 | inactive |
| EPHA10 | 0.58 | inactive |
| CSNK2A2 | -2.12 | inactive |
| ACVRL1 | 0.58 | inactive |
| CDC73 | -2.92 | inactive |
| FLT3 | 0.277 | inactive |
| CAMK2B | 0.58 | inactive |
| EIF2AK4 | -0.596 | inactive |
| RBM10 | -0.766 | inactive |
| TBCK | 0.58 | inactive |
| NME7 | 0.58 | inactive |
| STK38L | -0.476 | inactive |
| PNKP | 0.58 | inactive |

Already shown: 6 of the entries above.
| target | robust z-score, knock-down alone | activity call |
| --- | --- | --- |
| POMK | 0.58 | inactive |
| EPHA10 | 0.58 | inactive |
| CSNK2A2 | -2.12 | inactive |
| ACVRL1 | 0.58 | inactive |
| CDC73 | -2.92 | inactive |
| FLT3 | 0.277 | inactive |
